# Library screening results

A: 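Whole-cell assay for inhibitors of Mycobacterium tuberculosis growth, labelled Cornell in the record; the read-out is not stated. The concentration is filed as 10 mM, unlikely as a test dose, so the dose is not known. The record gives no direction; compounds strong in two other growth screens of this library score well above the rest, so higher reads as stronger inhibition. About 53,000 compounds were tested under these conditions; 1.7% (about 900) showed 50% or more at least once.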
B: 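Assay on Mycobacterium tuberculosis, filed only as a heat shock assay from Cornell; the read-out is not stated. The concentration is filed as 10 mM, unlikely as a test dose, so the dose is not known. Higher reads as stronger inhibition (inferred: compounds with an IC50 in retests scored well above the rest). Size under these conditions: about 69,000 compounds, about 930 of them at 50% or above in at least one test.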

Each number is a percent effect as filed. The controls that fix the scale are not given in the record; negative values are as filed. Compounds were drawn at random from those tested, without regard to their results. A dash means the value is not listed here; it may have been measured.

| # | Compound | A | B |
|---|---|---|---|
| 1 | `CC(C)C(CCO)NC(=O)Nc1cc(F)ccc1-n1cccn1` (configuration not stated) | - | -5.226 |
| 2 | `COCCc1noc(CN2CCCC(Cn3cncn3)C2)n1` (configuration not stated) | -34.49 | -5.586 |
| 3 | `CCC[C@H]1CN(Cc2ccc(N(C)C)nc2)C[C@@H]1NS(=O)(=O)CC` | 9.466 | -16.02 |
| 4 | `COc1cc(N2CCCC(c3nccn3Cc3ccncc3)C2)ncn1` (configuration not stated) | -15.42 | -35.35 |
| 5 | `CC(C)n1cc(N2CC(C(=O)N3CCCC3)CC2=O)cn1` (configuration not stated) | 15.52 | 16.89 |
| 6 | `COCCNC(=O)c1nn(-c2cccc(C(C)C)c2)cc1O` | 9.441 | -22.12 |
| 7 | `CCOCCCNC(=O)c1cc(C)nc(N2CCCCC2)n1` | - | 5.828 |
| 8 | `[H][C@]1([C@@]2(C)CC[C@H](O)C(C)(C)O2)CC2(CCN(c3ncccn3)CC2)CO1` | 22.56 | -1.274 |
| 9 | `Cc1nc(CCC(N)=O)cc(C2CCCN2S(C)(=O)=O)n1` (configuration not stated) | 37.94 | 0.1492 |
| 10 | `CC(C)(C)OC(=O)Cn1cccc(S(=O)(=O)N2CCCC2)c1=O` | 3.558 | -5.817 |
| 11 | `O=C(Cc1cccc(O)c1)N1CCC2(CC1)c1ccccc1CC2O` (configuration not stated) | 16.86 | -0.7581 |
| 12 | `[H][C@]12CCN(C(=O)CC(C)C)CC[C@@]1([H])S(=O)(=O)N(Cc1cccnc1)C2` | -3.579 | 11.38 |
| 13 | `Cc1nn(C)c(C)c1C1CCCN1Cc1nc(-c2ccccn2)no1` (configuration not stated) | 36.58 | -8.214 |
| 14 | `COC(=O)C1=NN2C(=NS(=O)(=O)c3ccccc32)N1` | 46.07 | -4.06 |
| 15 | `CSc1nccc(N2CCC(NCCN3CCOCC3)CC2)n1` | 37.71 | -22.55 |
| 16 | `Cc1ccccc1N1CCN(C(=O)CSc2ccncc2)CC1=O` | 19.2 | -0.04548 |
| 17 | `CN(C)CCCNC(=O)c1ccc(N(C)S(C)(=O)=O)cc1Cl` | -1.732 | 4.922 |
| 18 | `CC(=O)N1CCN(Cc2ccc3c(c2)OCCO3)CC(O)C1` (configuration not stated) | 4.67 | -2.171 |
| 19 | `CC(C)CNC(=O)CSc1nnc(OC(C)C)s1` | - | 2.52 |
| 20 | `CS(=O)(=O)CCCC(=O)Nc1cc(Cl)c(Cl)cn1` | -15.38 | 13.95 |
| 21 | `Cc1ccccc1CS(=O)(=O)Cc1nc(C2CC2)no1` | -43.75 | 92.63 |
| 22 | `O=C(O)C(F)(F)F.[H][C@]12CCC[C@@H](CNc3ncccn3)[C@@]1([H])CN(Cc1csnn1)C2` | -3.473 | -2.874 |
| 23 | `Cc1nnc(CN2CCCC(c3cc(C(N)=O)[nH]n3)C2)o1` (configuration not stated) | 3.577 | 10.41 |
| 24 | `COCCn1ccc(NCc2scnc2C)n1` | -10.31 | -20.8 |
| 25 | `O=C(Nc1cccnc1)c1noc2c1CN(S(=O)(=O)C1CC1)CC2` | - | -15.31 |
| 26 | `Cc1ccn(CCC(=O)NCc2ccc(C)o2)n1` | - | -13.11 |
| 27 | `Cc1nc(C2CCCN(C(=O)c3cc(Cl)c[nH]3)C2)no1` (configuration not stated) | 23.35 | 7.638 |
| 28 | `CCc1cc(CNC(=O)NCc2ccc(N3CCCCC3)cc2)on1` | 18.35 | -18.93 |
| 29 | `Cc1ccc(C2(O)CCN(C(=O)c3ccc(S(N)(=O)=O)cc3)CC2)nc1` | 1.915 | 12.13 |
| 30 | `O=C1CCCN1CCN1CCCC(c2ccn[nH]2)C1` (configuration not stated) | - | 4.433 |
| 31 | `c1ccc(-c2noc(CCNC3CCOC4(CCOCC4)C3)n2)nc1` (configuration not stated) | 10.93 | -1.635 |
| 32 | `NC(=O)N1CCC2(CCN(Cc3cccc(F)c3)CC2)CC1.O=C(O)C(F)(F)F` | 4.02 | -17.33 |
| 33 | `COCC(NC(=O)c1ccc(O)nc1)c1ccc(C)o1` (configuration not stated) | -3.29 | -3.009 |
| 34 | `CN1CCCCC1CC(=O)Nc1ccc2ncn(C)c2c1` (configuration not stated) | -28.54 | 0.8578 |
| 35 | `[H][C@@]12OCCN(C(=O)CC3=CCCCC3)[C@@]1([H])CC[C@@H]2OC` | 9.561 | 31.73 |
| 36 | `O=C(O)C(F)(F)F.[H][C@@]12CCCO[C@]1([H])[C@H](n1cccn1)CN2Cc1cccs1` | -3.545 | 9.856 |
| 37 | `O=C(CCC(=O)N1CCCC1c1ccsc1)N1CCOCC1` (configuration not stated) | 10.1 | 6.227 |
| 38 | `CCCSc1ccccc1NC(=O)N1CCC(N2CCSCC2)CC1` | -55.42 | -19.43 |
| 39 | `Cc1cn2c(CN(C)C(=O)c3ncoc3C)c(C)nc2s1` | 25.56 | -11.06 |
| 40 | `Cc1cc(C2CCCN(C(=O)c3c(C)nn4cccnc34)C2)n[nH]1` (configuration not stated) | - | -4.512 |
| 41 | `CC(C)(C)C(NC(=O)CCS(C)(=O)=O)c1ccc(F)cc1F` (configuration not stated) | - | -21.88 |
| 42 | `CCn1c(C)nnc1CN(C)C1CCN(Cc2nnc(C3CC3)o2)C1` (configuration not stated) | -8.155 | -5.082 |
| 43 | `O=C(NCC(O)c1cccc(O)c1)C1CCN(C2CCCCC2)CC1` (configuration not stated) | - | -183 |
| 44 | `O=C(O)C(F)(F)F.[H][C@@]12CCN(Cc3sccc3C)C[C@]1(COC)CCO2` | 0.5943 | 4.772 |
| 45 | `Cc1ccccc1-c1noc(CN2CCn3c(nnc3C3CC3)C2)n1` | 1.92 | 1.706 |
| 46 | `[H][C@@]12CS(=O)(=O)C[C@]1([H])N(Cc1nccn1CC)CCN2Cc1ccc(C)o1` | - | -11.1 |
| 47 | `Cc1ccc(N2CCN(C(=O)C3CN(C)C(=O)N3)CC2=O)cc1` (configuration not stated) | -6.938 | 13.42 |
| 48 | `CC(=O)N1CCC(Oc2ccc(C#N)cn2)CC1` | -2.715 | 20.66 |
| 49 | `Cc1cc(C)n(CCCNc2ncnc3c2NC(=O)CN3)n1` | 35.14 | -11.07 |
| 50 | `CCc1ocnc1C(=O)N1CCCC1c1noc(C2CC2)n1` (configuration not stated) | - | 8.404 |

Data taken from ChEMBL document CHEMBL3988442, “University of Dundee, Small-Polar-MMV Screening Library” (2021).